Results taken from publication PMC10507114.
Residue numbers refer to the chain shown, from its start. No constants are given. Whether binding was seen depends on the method and setting. In cells and extracts the contact can be indirect. Some binding calls cover weakened binding; strength is not graded here. For some of these results: Sequences can lack the tags named with a protein. Each block holds one molecule with its values, some of them ahead of it.

Legend:
Assay in all cases: co-IP
[1] = target: T1, FLAG-tagged VAMP8-K47A (UniProt Q9BV40)
T1 sequence: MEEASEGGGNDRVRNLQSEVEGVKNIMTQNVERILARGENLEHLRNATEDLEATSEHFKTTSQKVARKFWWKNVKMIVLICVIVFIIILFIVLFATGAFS

[2] = target: T2, FLAG-tagged vesicle-associated membrane protein 8 (VAMP8), wild type, Q9BV40; conditions: remark: other sources report otherwise
T2 chain: T1 sequence with A47K

[3] = target: T3, VAMP8, endogenous in H9c2 cells (rat (endogenous in H9c2)) (UniProt Q9WUF4)
T3 sequence: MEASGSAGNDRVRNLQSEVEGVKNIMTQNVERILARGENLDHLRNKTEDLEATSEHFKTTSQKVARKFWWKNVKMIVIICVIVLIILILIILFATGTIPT

- binding [2]: binds
B1: syntaxin 17 (STX17), in HEK293 cells, P56962 1-302 (protein)
chain: MSEDEEKVKLRRLEPAIQKFIKIVIPTDLERLRKHQINIEKYQRCRIWDKLHEEHINAGRTVQQLRSNIREIEKLCLKVRKDDLVLLKRMIDPVKEEASAATAEFLQLHLESVEELKKQFNDEETLLQPPLTRSMTVGGAFHTTEAEASSQSLTQIYALPEIPQDQNAAESWETLEADLIELSQLVTDFSLLVNSQQEKIDSIADHVNSAAVNVEEGTKNLGKAAKYKLAALPVAGALIGGMVGGPIGLLAGFKVAGIAAALGGGVLGFTGGKLIQRKKQKMMEKLTSSCPDLPSQTDKKCS

- binding [3]: binds
B3: STX17, endogenous in H9c2 cells (protein, UniProt Q9Z158 1-301)
chain: MSEDEEKVKLRRLEPAIQKFTKIVIPTDLERLKKHQINIEKYQRCRIWDKLHEEHINAGRTVQQLRSNIREMEKLCLKVHKDDLILLKRMIDPMKEAAAAATAEFLQLHLESVEELKKQVKNEEALLQPSLTRSTTIDGVHTGEAEAASQSLTQIYALPEIPRDQNAAESWETLEADLIELSHLVTDMSLLVNSQQEKIDSIADHVNSAAVNVEEGTKNLQKAAKYKLAALPVAGAVIGGVVGGPIGLLAGFKVAGIAAALGGGVLGFTGGKLIQRRKQKMMEKLTSSCPDLPSQSDKKCS

Further lines, the molecule ahead of its results:

Molecule: syntaxin 17 (STX17), in HEK293 cells (from UniProt P56962 1-302)
- binding [1]: binds

B2: SNAP29, endogenous in H9c2 cells (protein, UniProt Q9Z2P6 1-257)
chain: MSGYPKSYNPFDDDVEDEDTRPAPWKDARDLPDGPDPPIDRQQYLRQEVLRGPSATAASTSRSLFLMYESEKIGVASSEELVRQRGVLEHTEKMVDKMDQDLKMSQKHINSIKSVFGGFINYFKSKPVEPPPEQNGSIVPQPSSRLKEAINTSKDQESKYQASHPNLRRLHDAELDSVPASTVNTEVYPKNSSLRAYHQKIDSNLDELSVGLGRLKDIALGMQTEIEEQDDILDRLTTKVDKLDVNIKSTEKKVRQL
- binding [3]: binds
